This is one part of the list.
The molecules below were run on Caenorhabditis elegans N2 (assay: aldicarb interaction hit call (worm growth perturbed in combination with 10 uM aldicarb in both replicates, no effect as single agent) (binary (1 = interacts)); higher = interacts with aldicarb (growth perturbed)). Details: first compound 1.5 µM; aldicarb concentration 10 µM; 6 days; 20 °C.

SMILES	aldicarb interaction hit call
Cl.c1ccc(-c2ccc(OCCCN3CCOCC3)cc2)cc1 [wact-151] + CNC(=O)O/N=C/C(C)(C)SC [aldicarb]	inactive: 0
Cc1ccccc1-c1nc2ccc(N)cc2o1 [wact-565] + CNC(=O)O/N=C/C(C)(C)SC [aldicarb]	inactive: 0
Cc1nc(NC(=O)c2cccs2)ccc1Br [wact-516] + CNC(=O)O/N=C/C(C)(C)SC [aldicarb]	inactive: 0
FC(F)(F)c1cccc(-c2noc(-c3ccccn3)n2)c1 [wact-176] + CNC(=O)O/N=C/C(C)(C)SC [aldicarb]	inactive: 0
Fc1cccc(-c2nc(-c3ccccc3)no2)c1 [wact-191] + CNC(=O)O/N=C/C(C)(C)SC [aldicarb]	inactive: 0
O=C(NCC1CCCCC1)c1ccccc1I [wact-552] + CNC(=O)O/N=C/C(C)(C)SC [aldicarb]	inactive: 0
Cc1ccc(C(=O)Nc2ccc(N3CCN(C)CC3)c(Cl)c2)cc1C [wact-562] + CNC(=O)O/N=C/C(C)(C)SC [aldicarb]	inactive: 0
Cc1ccc(-c2cnc3ccccc3n2)cc1 [wact-181] + CNC(=O)O/N=C/C(C)(C)SC [aldicarb]	inactive: 0
Brc1ccc(-c2noc(-c3ccccc3)n2)cc1 [wact-184] + CNC(=O)O/N=C/C(C)(C)SC [aldicarb]	inactive: 0
S=C(Nc1ccc(Cl)c(Cl)c1)NC1CCN(Cc2ccccc2)CC1 [wact-107] + CNC(=O)O/N=C/C(C)(C)SC [aldicarb]	inactive: 0

A run of entries taken from the entries so far, as a working copy:
SMILES	aldicarb interaction hit call
O=C(NCC1CCCCC1)c1ccccc1I [wact-552] + CNC(=O)O/N=C/C(C)(C)SC [aldicarb]	inactive: 0
Cc1ccc(C(=O)Nc2ccc(N3CCN(C)CC3)c(Cl)c2)cc1C [wact-562] + CNC(=O)O/N=C/C(C)(C)SC [aldicarb]	inactive: 0

Reference: the supplement of paper PMC5393889
